# The supplement of paper PMC8728848
# The list shows a part of the results.
# What was measured:
# Assay in all cases: glycan array binding signal (z-score within array); higher = stronger binding
# Settings in all cases: glycan notation: IUPAC condensed, linker removed
# [1] = target: GlcNAc(b1-4)GlcNAc
# How it was run: (§1)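 The binding signal is a Z-score computed within each array. Data were drawn from 3228 arrays in the Consortium for Functional Glycomics database, restricted to those with a known protein sequence. Scores were averaged over arrays of the same protein sequence at different concentrations or buffers, and over linkers, and negative values can be taken as non-binding.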
# [2] = target: GlcNAc(b1-4)GlcNAc(b1-4)GlcNAc
# How it was run: as §1
# [3] = target: GlcNAc(b1-4)GlcNAc(b1-4)GlcNAc(b1-4)GlcNAc(b1-4)GlcNAc
# How it was run: as §1
# [4] = target: GlcNAc(b1-4)GlcNAc(b1-4)GlcNAc(b1-4)GlcNAc(b1-4)GlcNAc(b1-4)GlcNAc
# How it was run: as §1
# [5] = target: GlcNAc(b1-4)[GlcNAc(b1-6)]GalNAc
# How it was run: as §1
# [6] = target: GlcNAc(b1-6)Gal(b1-4)GlcNAc
# How it was run: as §1
# [7] = target: GlcNAc(b1-6)GalNAc
# How it was run: as §1
# [8] = target: GlcNAc3Prop(b1-4)GlcNAc
# How it was run: as §1
# [9] = target: GlcNAc6S(b1-3)Gal(b1-4)GlcNAc
# How it was run: as §1
# [10] = target: Kdn(a2-3)Gal(b1-3)GalNAc
# How it was run: as §1
# [11] = target: Kdn(a2-3)Gal(b1-3)GlcNAc
# How it was run: as §1
# [12] = target: Kdn(a2-3)Gal(b1-4)Glc
# How it was run: as §1
# [13] = target: Kdn(a2-3)Gal(b1-4)GlcNAc
# How it was run: as §1
# [14] = target: Kdn(a2-3)Gal(b1-4)[Fuc(a1-3)]GlcNAc
# How it was run: as §1
# [15] = target: Kdn(a2-6)Gal(b1-4)GlcNAc
# How it was run: as §1
# [16] = target: Man(a1-2)Man(a1-2)Man(a1-3)Man
# How it was run: as §1
# [17] = target: Man(a1-2)Man(a1-2)Man(a1-6)[Man(a1-3)]Man
# How it was run: as §1
# [18] = target: Man(a1-2)Man(a1-3)Man
# How it was run: as §1
# [19] = target: Man(a1-2)Man(a1-3)[Man(a1-2)Man(a1-6)]Man
# How it was run: as §1
# [20] = target: Man(a1-2)Man(a1-3)[Man(a1-2)Man(a1-6)]Man(a1-6)[Man(a1-2)Man(a1-2)Man(a1-3)]Man
# How it was run: as §1
# [21] = target: Man(a1-2)Man(a1-3)[Man(a1-2)Man(a1-6)]Man(a1-6)[Man(a1-2)Man(a1-2)Man(a1-3)]Man(b1-4)GlcNAc(b1-4)GlcNAc
# How it was run: as §1
# [22] = target: Man(a1-2)Man(a1-3)[Man(a1-6)]Man(a1-6)[Man(a1-2)Man(a1-3)]Man(b1-4)GlcNAc(b1-4)GlcNAc
# How it was run: as §1
# [23] = target: Man(a1-2)Man(a1-6)[Man(a1-3)]Man(a1-6)[Man(a1-2)Man(a1-2)Man(a1-3)]Man
# How it was run: as §1
# [24] = target: Man(a1-2)Man(a1-6)[Man(a1-3)]Man(a1-6)[Man(a1-2)Man(a1-2)Man(a1-3)]Man(b1-4)GlcNAc(b1-4)GlcNAc
# How it was run: as §1
# [25] = target: Man(a1-3)[Man(a1-6)]Man
# How it was run: as §1
# [26] = target: Man(a1-3)[Man(a1-6)]Man(a1-6)[Man(a1-2)Man(a1-3)]Man(b1-4)GlcNAc(b1-4)GlcNAc
# How it was run: as §1
# [27] = target: Man(a1-3)[Man(a1-6)]Man(a1-6)[Man(a1-3)]Man
# How it was run: as §1
# [28] = target: Man(a1-3)[Man(a1-6)]Man(a1-6)[Man(a1-3)]Man(b1-4)GlcNAc(b1-4)GlcNAc
# How it was run: as §1
# [29] = target: Man(a1-3)[Man(a1-6)]Man(b1-4)GlcNAc(b1-4)GlcNAc
# How it was run: as §1
# [30] = target: Man(a1-6)Man
# How it was run: as §1
# [31] = target: Man(b1-4)GlcNAc
# How it was run: as §1
# [32] = target: Neu5Ac(a2-3)Gal
# How it was run: as §1
# [33] = target: Neu5Ac(a2-3)Gal(b1-3)GalNAc
# How it was run: as §1
# [34] = target: Neu5Ac(a2-3)Gal(b1-3)GalNAc(b1-3)Gal(a1-4)Gal(b1-4)Glc
# How it was run: as §1
# [35] = target: Neu5Ac(a2-3)Gal(b1-3)GalNAc(b1-4)[Neu5Ac(a2-3)]Gal(b1-4)Glc
# How it was run: as §1
# [36] = target: Neu5Ac(a2-3)Gal(b1-3)GalNAc6S
# How it was run: as §1
# [37] = target: Neu5Ac(a2-3)Gal(b1-3)GlcNAc
# How it was run: as §1
# [38] = target: Neu5Ac(a2-3)Gal(b1-3)GlcNAc(b1-2)Man(a1-3)[Neu5Ac(a2-3)Gal(b1-3)GlcNAc(b1-2)Man(a1-6)]Man(b1-4)GlcNAc(b1-4)GlcNAc
# How it was run: as §1
binder,measurement,setting,value
"SRS2 (Toxoplasma gondii), O15695 (protein) MATRASLARQKTGAACLAVLTASPSVVAAKPWKRWVGVSVILASAFAVGVSAGPPYRYEPEKFTCRPKKGILSQWVSLLYQVQHNITFACEEATPVPTTLISEEHGLMVCAENMTPEECEANPAPLSAFLPGATKEWVTGDSVLTGLKISVPESQYPANAKSFRVGCRHNTKTGNTCMLTIHVEPRDPAVERQEARCSYTENSTLPKIFVTKDSNTMTLACGPHGAPMPESYTENYCSTPDTCDEKPFTSVIPGYLSKWFFGDPKSPLGARVRIPPEQIPSSPQINYFGCTGPTEGEGPKYNCTVPVPLGGGDPSEGSRPGGGSGGGKRGGGQGGGGSLAGFDFRQGSARHSLPSRMALSASALLAMTALAY",glycan array binding signal (z-score),[1],0.092
same,glycan array binding signal (z-score),[2],-0.384
same,glycan array binding signal (z-score),[3],0.455
same,glycan array binding signal (z-score),[4],-1.22
same,glycan array binding signal (z-score),[5],0.379
same,glycan array binding signal (z-score),[6],0.925
same,glycan array binding signal (z-score),[7],-0.782
same,glycan array binding signal (z-score),[8],0.829
same,glycan array binding signal (z-score),[9],-0.047
same,glycan array binding signal (z-score),[10],0.419
same,glycan array binding signal (z-score),[11],0.255
same,glycan array binding signal (z-score),[12],0.049
same,glycan array binding signal (z-score),[13],0.163
same,glycan array binding signal (z-score),[14],1.08
same,glycan array binding signal (z-score),[15],-0.107
same,glycan array binding signal (z-score),[16],0.449
same,glycan array binding signal (z-score),[17],0.396
same,glycan array binding signal (z-score),[18],0.173
same,glycan array binding signal (z-score),[19],-0.397
same,glycan array binding signal (z-score),[20],-1.13
same,glycan array binding signal (z-score),[21],-0.045
same,glycan array binding signal (z-score),[22],-0.726
same,glycan array binding signal (z-score),[23],0.304
same,glycan array binding signal (z-score),[24],-0.189
same,glycan array binding signal (z-score),[25],0.552
same,glycan array binding signal (z-score),[26],-0.774
same,glycan array binding signal (z-score),[27],0.449
same,glycan array binding signal (z-score),[28],0.017
same,glycan array binding signal (z-score),[29],-0.436
same,glycan array binding signal (z-score),[30],0.14
same,glycan array binding signal (z-score),[31],0.435
same,glycan array binding signal (z-score),[32],1.06
same,glycan array binding signal (z-score),[33],-0.48
same,glycan array binding signal (z-score),[34],-0.145
same,glycan array binding signal (z-score),[35],0.576
same,glycan array binding signal (z-score),[36],-0.649
same,glycan array binding signal (z-score),[37],0.115
same,glycan array binding signal (z-score),[38],-0.553

# Two entries from above in another layout.
binder	measurement	setting	value
SRS2 (Toxoplasma gondii), O15695 (protein) MATRASLARQKTGAACLAVLTASPSVVAAKPWKRWVGVSVILASAFAVGVSAGPPYRYEPEKFTCRPKKGILSQWVSLLYQVQHNITFACEEATPVPTTLISEEHGLMVCAENMTPEECEANPAPLSAFLPGATKEWVTGDSVLTGLKISVPESQYPANAKSFRVGCRHNTKTGNTCMLTIHVEPRDPAVERQEARCSYTENSTLPKIFVTKDSNTMTLACGPHGAPMPESYTENYCSTPDTCDEKPFTSVIPGYLSKWFFGDPKSPLGARVRIPPEQIPSSPQINYFGCTGPTEGEGPKYNCTVPVPLGGGDPSEGSRPGGGSGGGKRGGGQGGGGSLAGFDFRQGSARHSLPSRMALSASALLAMTALAY	glycan array binding signal (z-score)	[10]	0.419
same	glycan array binding signal (z-score)	[34]	-0.145
